PubChem BioAssay AID504444 (National Center for Advancing Translational Sciences (NCATS), 2011)
In all, about 360,000 compounds went through this assay and about 7,500 (2.1%) were called active. This list was built around the results that the source calls inconclusive (neither active nor inactive); the mix of calls is not that of the screen. Calls come from the whole dose curve; as a rule, active = well fitted inhibition curve with a large enough effect; inconclusive = small, poorly fitted or top-dose-only effect, or effect the other way; inactive = flat fitted curve, though single readings scatter. Potencies beside an inconclusive call are fits to weak or partial responses and may not hold up.
% is set by controls: 0 for no effect and ±100 for the full control effect; potency is the fitted concentration of half-maximal effect.

Test: Nrf2 qHTS screen for inhibitors; note: nearly all actives have a fitted effect of over 60% in size
Conditions: A549 ARE-Fluc reporter, luciferase luminescence, 18-24 h; activity change, negative = inhibition: at 46 µM (top of the series)
Procedure, shortened: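 Nrf2 function is reported as luminescence of an ARE-controlled luciferase in A549 cells. Compounds were tested at several concentrations, and a CellTiter-Fluor read on the same wells flagged cytotoxicity.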
With `Cc1ccc(N2C(=O)NC(=O)/C(=C/c3cnn(-c4ccc(C)cc4)c3)C2=O)cc1` the Potency was inconclusive: 9.2 µM [activator, partial curve, poor fit]. With `CC(=O)O[C@H]1CC[C@]2(C=O)C3CC[C@]4(C)[C@@H](C5=CC(=O)OC5)CC[C@]4(O)C3CC[C@]2(O)C1` (some centres not stated) the Potency was active: 0.259 µM. For `COc1cc(CN=C(C)c2c(O)n(C3CCCCC3)c(=O)[nH]c2=O)cc(OC)c1`, the Potency was inconclusive: 23.1 µM [falling, single point]. For `COc1cc(/C=C(/C)[N+](=O)[O-])ccc1OCc1ccccc1Cl`, the Potency was inconclusive: 6.51 µM [activator, partial curve]. With `COc1ccc2[nH]cc(CCN=C(NC(=O)c3ccccc3OC)Nc3nc(C)cc(C)n3)c2c1` the Potency was inconclusive: 29.1 µM [falling, single point]. In the case of `COC[C@H]1OC(=O)c2coc3c2[C@@]1(C)C1=C(C3=O)[C@@H]2CCC(=O)[C@@]2(C)C[C@H]1OC(C)=O`, the Potency is reported as active: 3.66 µM. In the case of `C=CCn1c(=O)c(C=Nc2c(OC)cccc2[N+](=O)[O-])c(O)n(CCCC)c1=O`, the “activity change, negative = inhibition” value is reported as inactive: -18.1%. With `COC(=O)C1=C(c2ccc(-c3ccccc3)c(F)c2)C[C@@H]2CC[C@H]1N2C(=O)N1CCCC1` the Potency was active: 20.6 µM. With `COc1cc(NC(=O)c2cc3cc4ccc(C)cc4nc3o2)cc(OC)c1OC` the Potency was inconclusive: 29.1 µM [falling, single point]. For `COc1cccc(-n2c(/C=C/c3ccccn3)nc3ccccc3c2=O)c1`, the Potency was inconclusive: 20.6 µM [falling, single point]. In the case of `OC(c1cccc(Cl)c1)(c1cccc(Cl)c1)C1CN2CCC1CC2` (configuration not stated), the Potency is reported as inconclusive: 20.6 µM [activator, partial curve, poor fit]. With `C/C(=N\N1CCCCC1c1cccnc1)c1c(O)n(C2CCCCC2)c(=S)[nH]c1=O` (configuration not stated) the Potency was inconclusive: 16.4 µM [falling, single point]. With `CC(C)CCn1c(=O)c(C(=O)Nc2ccccc2S(N)(=O)=O)c(O)c2ccccc21` the Potency was inconclusive: 29.1 µM [falling, single point]. In the case of `CC(C)OP(=O)(OC(C)C)C(Nc1ccc([N+](=O)[O-])cc1)c1cccc([N+](=O)[O-])c1` (configuration not stated), the Potency is reported as inconclusive: 25.9 µM [falling, single point]. In the case of `C(=NN1CCCCCC1)c1c[nH]c2ccccc12`, the “activity change, negative = inhibition” value is reported as inactive: 3.37%. In the case of `COc1ccc(OCCn2c(NC(=O)c3ccc(OC)cc3)nc3ccccc32)cc1`, the Potency is reported as inconclusive: 25.9 µM [falling, partial curve, poor fit]. In the case of `COC(=O)C1=C(c2ccc(F)cc2OCc2ccccc2)C[C@@H]2CC[C@H]1N2C(=O)NCc1ccccc1Br`, the Potency is reported as inconclusive: 10.3 µM [falling, partial curve, poor fit].
